One substance from publication PMC8989874 can be followed below.

No constants are given. Whether binding was seen depends on the method and setting. In cells and extracts the contact can be indirect. Binding calls can cover weak binding; strength is not graded here. Where a sequence is shown, tags or fusion partners need not be part of it.

Experiment [1] deals with T1, RhopH2-HA (P. falciparum) (UniProt C0H571).
T1 sequence: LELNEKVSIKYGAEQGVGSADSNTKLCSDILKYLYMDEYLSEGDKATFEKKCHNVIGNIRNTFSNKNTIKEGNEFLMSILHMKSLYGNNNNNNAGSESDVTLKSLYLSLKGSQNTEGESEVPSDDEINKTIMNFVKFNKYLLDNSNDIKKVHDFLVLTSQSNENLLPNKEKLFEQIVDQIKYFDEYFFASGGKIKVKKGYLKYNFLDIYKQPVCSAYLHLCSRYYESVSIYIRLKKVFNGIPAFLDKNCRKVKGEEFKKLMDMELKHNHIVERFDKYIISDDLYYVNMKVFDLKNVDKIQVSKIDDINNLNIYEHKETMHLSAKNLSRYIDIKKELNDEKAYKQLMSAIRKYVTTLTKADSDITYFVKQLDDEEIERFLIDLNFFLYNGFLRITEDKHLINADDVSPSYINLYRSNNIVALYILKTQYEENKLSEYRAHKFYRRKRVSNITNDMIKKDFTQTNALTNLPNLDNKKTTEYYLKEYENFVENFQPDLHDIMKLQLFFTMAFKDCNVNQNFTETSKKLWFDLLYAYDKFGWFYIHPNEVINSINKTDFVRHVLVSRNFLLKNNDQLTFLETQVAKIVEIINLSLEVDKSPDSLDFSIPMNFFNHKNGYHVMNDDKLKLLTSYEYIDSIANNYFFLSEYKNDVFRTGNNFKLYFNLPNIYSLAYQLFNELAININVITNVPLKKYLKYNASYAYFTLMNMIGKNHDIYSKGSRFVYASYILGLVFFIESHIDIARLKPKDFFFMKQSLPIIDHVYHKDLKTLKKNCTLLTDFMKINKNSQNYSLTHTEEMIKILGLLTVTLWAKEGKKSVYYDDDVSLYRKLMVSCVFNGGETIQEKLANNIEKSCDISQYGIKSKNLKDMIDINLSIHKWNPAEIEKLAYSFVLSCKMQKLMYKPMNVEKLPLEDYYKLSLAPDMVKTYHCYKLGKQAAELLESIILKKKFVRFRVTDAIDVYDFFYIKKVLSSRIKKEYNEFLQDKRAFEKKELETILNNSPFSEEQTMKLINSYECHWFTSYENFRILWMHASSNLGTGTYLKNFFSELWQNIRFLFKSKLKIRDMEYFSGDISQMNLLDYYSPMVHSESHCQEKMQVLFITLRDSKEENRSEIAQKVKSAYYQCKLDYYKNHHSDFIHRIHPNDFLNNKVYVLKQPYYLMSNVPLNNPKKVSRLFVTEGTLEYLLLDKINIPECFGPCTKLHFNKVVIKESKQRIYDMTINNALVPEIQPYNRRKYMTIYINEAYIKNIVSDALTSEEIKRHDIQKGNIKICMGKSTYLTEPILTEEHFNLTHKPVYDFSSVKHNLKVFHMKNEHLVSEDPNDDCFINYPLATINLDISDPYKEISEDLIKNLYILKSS
Description: co-IP; RhopH2-HA immunoprecipitated with anti-HA 3F10 from very early rings (directly after invasion), lysed in 20 mM HEPES, 150 mM NaCl, 2% DDM, pH 7.2; eluted with 0.5% SDS at 95 °C; immunoblot for RhopH3 and Clag3.

Experiment [2] addresses T1, RhopH2-HA (P. falciparum). Description: co-IP; RhopH2-HA immunoprecipitated with anti-HA 3F10 from saponin pellets of free merozoites and early trophozoites lysed in 20 mM HEPES, 150 mM NaCl, 2% DDM, pH 7.2; eluted with 0.5% SDS at 95 °C; immunoblot for RhopH3 and Clag3.

For the substance Clag3, the binding result in experiment [1] and in experiment [2] was “binds” each time.
